# ± gives the standard deviation of the averaged measurements. The entries are a selection whose mix differs from that of the whole data set. Most entries show no effect beyond the scatter of the controls.
# The chains behind the UniProt entries cited, without tags or fusion partners. Where a name states a change or a piece, a line headed by the entry shows the natural chain unless it says otherwise.
# UniProt Q8TAV0: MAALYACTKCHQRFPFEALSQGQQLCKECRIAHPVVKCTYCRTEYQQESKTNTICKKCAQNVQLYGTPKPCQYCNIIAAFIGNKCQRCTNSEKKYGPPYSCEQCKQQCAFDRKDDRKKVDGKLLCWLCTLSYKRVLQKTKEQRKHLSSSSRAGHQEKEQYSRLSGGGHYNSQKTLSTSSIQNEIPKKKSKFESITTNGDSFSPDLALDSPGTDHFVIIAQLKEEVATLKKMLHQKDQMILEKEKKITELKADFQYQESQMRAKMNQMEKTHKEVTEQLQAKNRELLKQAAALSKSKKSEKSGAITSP
# UniProt Q8WV92, whole entry: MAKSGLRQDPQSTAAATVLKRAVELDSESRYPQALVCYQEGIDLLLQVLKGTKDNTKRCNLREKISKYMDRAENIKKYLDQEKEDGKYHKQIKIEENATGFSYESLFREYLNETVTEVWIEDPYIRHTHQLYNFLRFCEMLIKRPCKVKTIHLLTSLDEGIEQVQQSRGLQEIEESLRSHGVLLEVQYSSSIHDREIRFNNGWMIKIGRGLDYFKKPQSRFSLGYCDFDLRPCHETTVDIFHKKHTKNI
# UniProt Q8WV93: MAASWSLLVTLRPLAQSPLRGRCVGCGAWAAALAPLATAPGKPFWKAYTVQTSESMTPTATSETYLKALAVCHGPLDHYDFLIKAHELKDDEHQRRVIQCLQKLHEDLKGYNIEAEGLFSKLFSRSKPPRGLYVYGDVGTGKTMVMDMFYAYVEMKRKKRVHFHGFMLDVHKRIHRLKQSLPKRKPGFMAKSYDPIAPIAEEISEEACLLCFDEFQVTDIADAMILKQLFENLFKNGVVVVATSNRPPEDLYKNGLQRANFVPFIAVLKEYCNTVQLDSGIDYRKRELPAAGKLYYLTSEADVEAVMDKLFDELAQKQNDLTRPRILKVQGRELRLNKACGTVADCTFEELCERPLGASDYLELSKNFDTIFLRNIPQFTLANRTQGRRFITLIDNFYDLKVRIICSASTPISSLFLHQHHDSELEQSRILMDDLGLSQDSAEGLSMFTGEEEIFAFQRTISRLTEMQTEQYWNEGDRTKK
# UniProt Q8NDT2: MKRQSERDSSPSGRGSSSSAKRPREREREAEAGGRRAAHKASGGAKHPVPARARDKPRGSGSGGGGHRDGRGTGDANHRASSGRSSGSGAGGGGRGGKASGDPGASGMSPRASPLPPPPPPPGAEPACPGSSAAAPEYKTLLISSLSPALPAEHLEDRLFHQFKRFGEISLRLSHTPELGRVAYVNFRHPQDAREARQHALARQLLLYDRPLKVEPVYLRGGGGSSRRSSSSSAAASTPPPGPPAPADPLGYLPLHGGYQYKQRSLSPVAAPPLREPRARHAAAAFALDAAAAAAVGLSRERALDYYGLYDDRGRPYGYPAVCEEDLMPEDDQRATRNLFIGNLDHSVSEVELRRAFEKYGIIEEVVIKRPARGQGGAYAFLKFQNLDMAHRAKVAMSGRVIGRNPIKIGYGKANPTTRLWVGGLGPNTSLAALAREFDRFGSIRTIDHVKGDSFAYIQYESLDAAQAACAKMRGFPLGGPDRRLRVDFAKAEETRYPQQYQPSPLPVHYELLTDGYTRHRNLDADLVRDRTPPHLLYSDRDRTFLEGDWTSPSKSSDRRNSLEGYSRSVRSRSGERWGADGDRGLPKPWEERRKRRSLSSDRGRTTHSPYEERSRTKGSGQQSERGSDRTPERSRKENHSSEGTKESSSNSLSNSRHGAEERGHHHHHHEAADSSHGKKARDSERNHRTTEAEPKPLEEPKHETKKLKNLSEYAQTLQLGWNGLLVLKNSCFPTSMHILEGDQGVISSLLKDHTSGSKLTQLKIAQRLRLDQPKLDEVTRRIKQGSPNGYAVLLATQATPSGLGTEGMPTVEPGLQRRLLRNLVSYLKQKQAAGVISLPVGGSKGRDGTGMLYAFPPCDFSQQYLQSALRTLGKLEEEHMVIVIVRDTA
# UniProt Q8TF68: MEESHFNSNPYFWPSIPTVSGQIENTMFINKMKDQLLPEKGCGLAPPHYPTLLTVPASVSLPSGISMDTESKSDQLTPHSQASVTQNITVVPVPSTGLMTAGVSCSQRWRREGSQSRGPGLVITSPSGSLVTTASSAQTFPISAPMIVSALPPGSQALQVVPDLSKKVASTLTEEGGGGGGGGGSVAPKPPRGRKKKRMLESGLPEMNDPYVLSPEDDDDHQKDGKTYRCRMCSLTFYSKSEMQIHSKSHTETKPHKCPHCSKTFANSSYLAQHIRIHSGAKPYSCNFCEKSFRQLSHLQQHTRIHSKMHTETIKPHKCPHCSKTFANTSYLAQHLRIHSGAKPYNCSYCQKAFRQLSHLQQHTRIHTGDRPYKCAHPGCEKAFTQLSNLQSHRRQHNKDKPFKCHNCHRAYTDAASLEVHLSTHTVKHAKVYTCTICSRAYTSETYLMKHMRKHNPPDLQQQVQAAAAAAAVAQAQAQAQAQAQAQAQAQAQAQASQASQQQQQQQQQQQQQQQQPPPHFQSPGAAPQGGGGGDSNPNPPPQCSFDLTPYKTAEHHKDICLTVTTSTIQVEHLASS
# UniProt Q8TDX7: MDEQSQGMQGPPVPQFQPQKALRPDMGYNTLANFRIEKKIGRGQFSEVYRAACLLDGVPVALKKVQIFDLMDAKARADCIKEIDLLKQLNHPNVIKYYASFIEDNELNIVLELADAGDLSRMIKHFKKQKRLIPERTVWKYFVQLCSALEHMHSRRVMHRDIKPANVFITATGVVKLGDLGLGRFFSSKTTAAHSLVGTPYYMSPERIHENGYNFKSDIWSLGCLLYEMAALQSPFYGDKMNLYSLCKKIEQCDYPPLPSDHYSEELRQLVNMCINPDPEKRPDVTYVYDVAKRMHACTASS
# UniProt Q8ND56: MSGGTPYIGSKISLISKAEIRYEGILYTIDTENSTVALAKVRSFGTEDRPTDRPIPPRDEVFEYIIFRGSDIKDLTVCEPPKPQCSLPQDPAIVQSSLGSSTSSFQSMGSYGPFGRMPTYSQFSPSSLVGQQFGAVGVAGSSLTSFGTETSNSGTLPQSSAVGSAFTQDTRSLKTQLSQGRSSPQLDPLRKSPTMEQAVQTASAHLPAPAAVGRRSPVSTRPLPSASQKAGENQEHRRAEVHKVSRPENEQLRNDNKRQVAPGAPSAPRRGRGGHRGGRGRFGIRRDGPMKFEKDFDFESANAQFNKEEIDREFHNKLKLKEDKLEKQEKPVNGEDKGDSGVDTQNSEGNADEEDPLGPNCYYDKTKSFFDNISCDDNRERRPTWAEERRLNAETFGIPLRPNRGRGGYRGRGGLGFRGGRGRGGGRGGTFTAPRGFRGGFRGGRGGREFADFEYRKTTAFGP
# UniProt Q92851: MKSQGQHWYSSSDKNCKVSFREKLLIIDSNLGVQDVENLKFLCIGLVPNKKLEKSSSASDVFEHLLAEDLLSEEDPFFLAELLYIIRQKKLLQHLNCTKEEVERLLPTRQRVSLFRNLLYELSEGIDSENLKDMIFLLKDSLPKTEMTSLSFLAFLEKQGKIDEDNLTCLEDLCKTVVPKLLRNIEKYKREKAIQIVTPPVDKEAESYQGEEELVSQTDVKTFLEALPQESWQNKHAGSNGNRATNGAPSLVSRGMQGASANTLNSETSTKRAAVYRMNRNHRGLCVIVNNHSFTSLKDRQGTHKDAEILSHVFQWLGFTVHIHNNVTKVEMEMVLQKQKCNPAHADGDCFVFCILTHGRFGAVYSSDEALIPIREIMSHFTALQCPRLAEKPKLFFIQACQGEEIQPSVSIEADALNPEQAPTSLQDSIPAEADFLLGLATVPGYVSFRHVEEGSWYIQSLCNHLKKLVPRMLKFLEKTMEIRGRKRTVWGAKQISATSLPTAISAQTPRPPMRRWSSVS
# UniProt Q8WUB8: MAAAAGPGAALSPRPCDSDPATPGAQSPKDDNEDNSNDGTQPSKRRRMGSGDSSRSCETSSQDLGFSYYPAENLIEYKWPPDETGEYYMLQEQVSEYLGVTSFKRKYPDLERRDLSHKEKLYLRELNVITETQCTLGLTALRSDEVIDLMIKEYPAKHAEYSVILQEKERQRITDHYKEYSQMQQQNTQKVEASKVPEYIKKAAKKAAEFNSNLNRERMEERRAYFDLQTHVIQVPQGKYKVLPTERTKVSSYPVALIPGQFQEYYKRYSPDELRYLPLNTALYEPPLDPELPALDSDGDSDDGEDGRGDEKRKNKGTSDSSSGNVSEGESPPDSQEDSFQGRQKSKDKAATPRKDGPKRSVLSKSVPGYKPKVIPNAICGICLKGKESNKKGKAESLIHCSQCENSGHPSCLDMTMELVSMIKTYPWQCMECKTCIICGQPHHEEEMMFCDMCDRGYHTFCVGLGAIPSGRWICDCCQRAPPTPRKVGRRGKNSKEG
# UniProt Q8WVM8, whole entry, looked up: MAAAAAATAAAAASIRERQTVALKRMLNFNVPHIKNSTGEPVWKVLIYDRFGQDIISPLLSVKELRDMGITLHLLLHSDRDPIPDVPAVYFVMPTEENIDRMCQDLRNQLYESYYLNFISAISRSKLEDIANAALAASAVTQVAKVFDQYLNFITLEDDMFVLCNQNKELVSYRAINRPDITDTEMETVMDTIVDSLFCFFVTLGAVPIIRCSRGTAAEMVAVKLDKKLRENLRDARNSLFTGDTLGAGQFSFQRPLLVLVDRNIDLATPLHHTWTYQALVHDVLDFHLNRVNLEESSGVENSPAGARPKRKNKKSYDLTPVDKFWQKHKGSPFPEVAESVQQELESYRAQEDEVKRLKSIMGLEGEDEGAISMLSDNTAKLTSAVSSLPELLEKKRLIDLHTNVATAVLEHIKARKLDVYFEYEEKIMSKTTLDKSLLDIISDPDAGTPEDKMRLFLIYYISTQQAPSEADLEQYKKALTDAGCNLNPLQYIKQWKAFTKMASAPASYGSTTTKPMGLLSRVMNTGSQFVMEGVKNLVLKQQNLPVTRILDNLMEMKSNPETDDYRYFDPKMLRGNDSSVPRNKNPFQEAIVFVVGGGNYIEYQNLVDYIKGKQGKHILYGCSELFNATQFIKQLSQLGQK
# UniProt Q8TCS8: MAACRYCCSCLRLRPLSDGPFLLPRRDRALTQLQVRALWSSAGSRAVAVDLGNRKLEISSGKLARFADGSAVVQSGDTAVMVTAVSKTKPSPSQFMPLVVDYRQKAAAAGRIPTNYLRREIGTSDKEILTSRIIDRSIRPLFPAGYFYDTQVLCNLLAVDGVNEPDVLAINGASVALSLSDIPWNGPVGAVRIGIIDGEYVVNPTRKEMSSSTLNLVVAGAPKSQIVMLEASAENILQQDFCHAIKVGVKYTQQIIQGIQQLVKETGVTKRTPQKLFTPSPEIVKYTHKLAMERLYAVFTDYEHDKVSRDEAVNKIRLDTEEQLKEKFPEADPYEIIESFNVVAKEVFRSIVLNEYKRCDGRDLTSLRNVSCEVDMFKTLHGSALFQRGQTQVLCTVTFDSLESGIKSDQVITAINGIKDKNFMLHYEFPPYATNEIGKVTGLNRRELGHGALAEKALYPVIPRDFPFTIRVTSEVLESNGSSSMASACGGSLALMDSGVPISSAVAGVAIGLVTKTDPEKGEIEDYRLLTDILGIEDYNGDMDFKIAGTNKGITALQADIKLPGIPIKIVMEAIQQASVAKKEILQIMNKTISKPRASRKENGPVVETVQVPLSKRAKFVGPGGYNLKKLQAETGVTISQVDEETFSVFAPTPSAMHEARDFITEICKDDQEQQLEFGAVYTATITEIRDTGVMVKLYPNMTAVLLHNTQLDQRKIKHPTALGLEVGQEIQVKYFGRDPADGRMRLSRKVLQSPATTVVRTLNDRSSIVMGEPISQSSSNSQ
# UniProt Q8WUW1: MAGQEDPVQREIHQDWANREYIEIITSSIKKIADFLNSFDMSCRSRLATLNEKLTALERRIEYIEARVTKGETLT
# UniProt Q8TBE0: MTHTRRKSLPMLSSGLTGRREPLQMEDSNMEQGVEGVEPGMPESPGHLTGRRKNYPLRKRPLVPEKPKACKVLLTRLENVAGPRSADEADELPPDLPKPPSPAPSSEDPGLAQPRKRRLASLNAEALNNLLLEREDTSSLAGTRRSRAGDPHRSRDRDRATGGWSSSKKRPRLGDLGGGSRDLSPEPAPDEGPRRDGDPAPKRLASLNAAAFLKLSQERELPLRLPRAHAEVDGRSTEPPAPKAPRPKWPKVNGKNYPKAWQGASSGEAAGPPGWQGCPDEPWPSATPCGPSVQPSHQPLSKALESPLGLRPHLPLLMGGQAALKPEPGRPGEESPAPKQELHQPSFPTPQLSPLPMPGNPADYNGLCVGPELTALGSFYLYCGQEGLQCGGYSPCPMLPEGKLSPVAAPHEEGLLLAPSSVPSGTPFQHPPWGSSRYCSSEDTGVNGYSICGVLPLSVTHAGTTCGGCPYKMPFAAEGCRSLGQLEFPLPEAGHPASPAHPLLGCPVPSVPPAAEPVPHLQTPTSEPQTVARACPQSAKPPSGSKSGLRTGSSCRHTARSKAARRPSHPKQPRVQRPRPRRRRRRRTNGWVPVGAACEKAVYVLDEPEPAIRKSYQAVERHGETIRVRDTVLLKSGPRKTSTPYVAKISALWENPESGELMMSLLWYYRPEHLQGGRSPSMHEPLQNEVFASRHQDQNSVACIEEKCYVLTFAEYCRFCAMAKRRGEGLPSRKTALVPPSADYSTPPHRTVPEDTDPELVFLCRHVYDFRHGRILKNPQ
# Compound: Nc1ncnc2c1ncn2[C@@H]1O[C@H](COP(=O)(O)OP(=O)(O)NP(=O)(O)O)[C@@H](O)[C@H]1O [adenylyl imidodiphosphate]
# Experiment: NP40-soluble protein abundance relative to vehicle (solubility fold change) (ratio); higher = more soluble protein in presence of AMP-PNP
# Summary of the method: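 Each value is a fold change relative to the detergent-processed vehicle, calculated per replicate from vsn-normalised intensities. Jurkat crude lysate received eight concentrations (0.1 to 10 mM) for 10 min at room temperature and 3 min at 37 °C, then was solubilised in 0.8% NP40 with benzonase (60 min, 4 °C). The ultracentrifuged supernatant was TMT-labelled and run by LC-MS/MS in three independent experiments.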
Target,NP40-soluble protein abundance (concentration: 0.1mM),NP40-soluble protein abundance (concentration: 0.5mM)
JADE3 (UniProt Q92613),1.01 ± 0.012,1.04 ± 0.034
ERCC4 (UniProt Q92889),1.006 ± 0.0059,1 ± 0.037
MYST3 (UniProt Q92794),0.989 ± 0.015,1.03 ± 0.027
DTD1 (UniProt Q8TEA8),0.991 ± 0.023,1.02 ± 0.054
CCNY (UniProt Q8ND76),0.994 ± 0.015,0.963 ± 0.021
UniProt Q92636 and related entries,0.981 ± 0.029,0.992 ± 0.066
UniProt Q8WYN0 and related entries,0.999 ± 0.013,1.03 ± 0.021
UniProt Q8ND04 and related entries,1.01 ± 0.017,0.987 ± 0.013
UniProt Q92540 and related entries,0.99 ± 0.03,0.9589 ± 0.0053
UniProt Q8TAV0 and related entries,1.01 ± 0.024,1.01 ± 0.02
UniProt Q8TCT7 and related entries,1.01 ± 0.017,0.997 ± 0.021
HSD17B8 (UniProt Q92506),1.05 ± 0.052,1.02 ± 0.04
MITD1 (UniProt Q8WV92),1.01 ± 0.012,1.035 ± 0.004
UniProt Q8WV93,1.03 ± 0.12,0.989 ± 0.11
RBM15B (UniProt Q8NDT2),1.01 ± 0.018,1.03 ± 0.048
UniProt Q8NDI1-2|Q8NDI1-3,0.974 ± 0.032,0.993 ± 0.027
SORL1 (UniProt Q92673),0.9892 ± 0.006,1 ± 0.031
UniProt Q92783 and related entries,0.989 ± 0.018,1.06 ± 0.04
UniProt Q8TCA0 and related entries,0.987 ± 0.02,0.987 ± 0.035
UniProt Q92574 and related entries,1.01 ± 0.027,0.997 ± 0.036

Target,NP40-soluble protein abundance (concentration: 0.1mM),NP40-soluble protein abundance (concentration: 0.5mM)
ZNF384 (UniProt Q8TF68),0.972 ± 0.02,0.998 ± 0.049
UniProt Q8TBN0 and related entries,1.02 ± 0.021,1.01 ± 0.03
UniProt Q8TEP8-3,0.976 ± 0.015,0.973 ± 0.03
DDX1 (UniProt Q92499),0.99 ± 0.032,0.985 ± 0.033
DNAJB14 (UniProt Q8TBM8),0.983 ± 0.036,0.973 ± 0.019
C15orf40 (UniProt Q8WUR7),0.984 ± 0.024,1.02 ± 0.025
UBLCP1 (UniProt Q8WVY7),1.01 ± 0.067,1.02 ± 0.075
UniProt Q8NC51 and related entries,0.983 ± 0.015,1.07 ± 0.025
UniProt Q8TEQ8 and related entries,0.993 ± 0.018,0.992 ± 0.028
UniProt Q92608 and related entries,1.02 ± 0.044,0.989 ± 0.071
NEK7 (UniProt Q8TDX7),1.05 ± 0.036,1.03 ± 0.045
KBTBD7 (UniProt Q8WVZ9),1.03 ± 0.014,0.979 ± 0.019
LSM14A (UniProt Q8ND56),0.989 ± 0.014,0.994 ± 0.037
KHSRP (UniProt Q92945),0.973 ± 0.018,1.01 ± 0.058
UniProt Q92542 and related entries,0.9698 ± 0.0093,0.995 ± 0.029
HDAC2 (UniProt Q92769),1.04 ± 0.025,1.04 ± 0.015
AKAP1 (UniProt Q92667),0.964 ± 0.032,0.993 ± 0.036
UniProt Q8NHY2 and related entries,0.9969 ± 0.0085,0.994 ± 0.011
UniProt Q92552 and related entries,1.02 ± 0.04,1 ± 0.042
ARPC1A (UniProt Q92747),1.02 ± 0.062,0.974 ± 0.14

Target,NP40-soluble protein abundance (concentration: 0.1mM),NP40-soluble protein abundance (concentration: 0.5mM)
UniProt Q8TEW0-8|Q5VWU8 and related entries,0.992 ± 0.036,1 ± 0.04
UniProt Q92851 and related entries,0.992 ± 0.019,0.972 ± 0.032
UniProt Q8TEX9 and related entries,1.07 ± 0.051,1.04 ± 0.04
UniProt Q8WUB8 and related entries,0.98 ± 0.023,1.02 ± 0.026
UniProt Q8TB61 and related entries,0.963 ± 0.019,0.976 ± 0.03
SCFD1 (UniProt Q8WVM8),0.983 ± 0.023,0.986 ± 0.032
UniProt Q8NHV4 and related entries,0.982 ± 0.027,0.9956 ± 0.0058
PIGK (UniProt Q92643),1.03 ± 0.029,1 ± 0.078
PNPT1 (UniProt Q8TCS8),0.9899 ± 0.0044,0.987 ± 0.031
GIMAP7 (UniProt Q8NHV1),0.971 ± 0.052,0.946 ± 0.04
UniProt Q8WWC4,1.04 ± 0.029,0.981 ± 0.076
GTF2H4 (UniProt Q92759),1.03 ± 0.032,1.04 ± 0.035
UniProt Q8WUW1 and related entries,0.963 ± 0.045,0.965 ± 0.072
UniProt Q8TEA7 and related entries,0.994 ± 0.05,0.954 ± 0.042
KBTBD8 (UniProt Q8NFY9),0.973 ± 0.011,0.975 ± 0.056
UniProt Q8TDD1 and related entries,0.996 ± 0.015,0.987 ± 0.027
UniProt Q8TBE0 and related entries,1.02 ± 0.039,0.996 ± 0.038
WDR48 (UniProt Q8TAF3),1.05 ± 0.039,1.01 ± 0.05
UniProt Q8WVD3 and related entries,0.9668 ± 0.002,1 ± 0.031
ZCRB1 (UniProt Q8TBF4),1.02 ± 0.011,1.01 ± 0.039

# Shown tab-delimited: entries from further up.
Target	NP40-soluble protein abundance (concentration: 0.1mM)	NP40-soluble protein abundance (concentration: 0.5mM)
PNPT1 (UniProt Q8TCS8)	0.9899 ± 0.0044	0.987 ± 0.031
GIMAP7 (UniProt Q8NHV1)	0.971 ± 0.052	0.946 ± 0.04
UniProt Q8WWC4	1.04 ± 0.029	0.981 ± 0.076
GTF2H4 (UniProt Q92759)	1.03 ± 0.032	1.04 ± 0.035
UniProt Q8WUW1 and related entries	0.963 ± 0.045	0.965 ± 0.072
UniProt Q8TEA7 and related entries	0.994 ± 0.05	0.954 ± 0.042
KBTBD8 (UniProt Q8NFY9)	0.973 ± 0.011	0.975 ± 0.056
UniProt Q8TDD1 and related entries	0.996 ± 0.015	0.987 ± 0.027
UniProt Q8TBE0 and related entries	1.02 ± 0.039	0.996 ± 0.038
WDR48 (UniProt Q8TAF3)	1.05 ± 0.039	1.01 ± 0.05
UniProt Q8WVD3 and related entries	0.9668 ± 0.002	1 ± 0.031
